# Measured values from PubChem BioAssay (Tox21).
# Amino acid sequences for entries named in this document (tags omitted).
# UniProt P14416, whole entry, looked up: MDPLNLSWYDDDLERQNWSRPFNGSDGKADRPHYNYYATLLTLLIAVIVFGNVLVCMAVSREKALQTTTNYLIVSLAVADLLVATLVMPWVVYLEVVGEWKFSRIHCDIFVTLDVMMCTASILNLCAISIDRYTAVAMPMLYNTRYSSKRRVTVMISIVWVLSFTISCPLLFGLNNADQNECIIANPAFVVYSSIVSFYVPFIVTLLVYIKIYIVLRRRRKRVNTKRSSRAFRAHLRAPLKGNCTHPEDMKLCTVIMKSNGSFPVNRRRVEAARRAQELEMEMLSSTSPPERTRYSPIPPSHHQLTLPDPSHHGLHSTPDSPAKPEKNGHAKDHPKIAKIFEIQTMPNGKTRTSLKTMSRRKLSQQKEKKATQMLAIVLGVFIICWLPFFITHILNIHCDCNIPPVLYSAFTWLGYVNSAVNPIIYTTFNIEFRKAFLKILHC
# The shares of active, inactive and inconclusive entries below differ from those in the screen. A call without a number means that no potency is given here. For some of these results: Where the call is inconclusive, the potency comes from a doubtful curve fit. Activity calls are given as the source filed them. Unless noted, calls follow the shape of the full dose curve.
# Tests used:
# [1] = p53 small molecule agonists, cell-based qHTS assay with human liver microsomes (AID 1963577); details: HCT-116 p53RE-bla with human liver microsomes, ratio, 16 h; activation: at 66 µM (top of the series) unless noted; also: potency is read from the fitted curve at half-maximal effect;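 as to activation: p53 response element beta-lactamase reporter cells with liver microsomes plus NADPH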
# Summary of the method: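 With metabolic activation: human liver microsomes (0.5 mg/mL final) plus NADPH (0.5 mg/mL final) added alongside compounds to p53RE-bla cells; 16 h 37 C exposure; beta-lactamase read by LiveBLAzer fluorescence.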
# [2] = cAMP Responsive Elements (CRE) small molecule antagonists, cell-based qHTS assay (AID 1963591; active = well fitted inhibition curve with a large enough effect in the signal ratio in the repeat runs, not every such curve was filed as active; inconclusive = weak or mixed curves, or effect the other way; the % refers to the signal ratio); details: CRE-bla HEK293T, beta-lactamase FRET ratio; activity change, negative = inhibition: at 92.4 µM (top of the series) unless noted
# Summary of the method: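 CRE-bla HEK293T cells were plated 18 h at 37 °C/5% CO2, pinned with compound in DMSO, then stimulated with NKH477 at 0.25 uM final for 3 h. LiveBLAzer B/G FRET substrate was added and plates incubated 2 h at room temperature.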
# [3] = molecular target: Beta-2 adrenergic receptor (Homo sapiens) (UniProt P07550); assay: Adrenergic beta2 receptor (ADRB2) small molecule agonists, cell-based qHTS assay (AID 1963593); details: CHO-ADRB2 cells, cAMP HTRF, 30 min;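 also: CHO cells stably overexpressing human ADRB2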
# Summary of the method: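 CHO cells stably over-expressing ADRB2 were plated overnight at 37C, then dosed with compounds plus a stimulation mix containing 100uM IBMX and 25uM Ro-20-1724 for 0.5hr at room temperature. cAMP was measured by HTRF competition, 1hr.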
# [4] = molecular target: Beta-2 adrenergic receptor (Homo sapiens) (UniProt P07550); assay: Adrenergic beta2 receptor (ADRB2) small molecule antagonists, cell-based qHTS assay (AID 1963592); details: CHO-ADRB2 cells, isoproterenol-stimulated cAMP HTRF ratio, 0.5 h; activity change, negative = inhibition: at 92.4 µM (top of the series) unless noted; also: nearly all actives have a fitted effect of over 50% in size
# Summary of the method: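 Cells (CHO, stable ADRB2 overexpression) incubated 18-20hr at 37C; compounds added from DMSO; agonist mix (1nM isoproterenol, 100uM IBMX, 25uM Ro-20-1724) added; 0.5hr RT; d2-cAMP and anti-cAMP-cryptate added; 1hr RT; 665/615 nm read.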
# [5] = cAMP Responsive Elements (CRE) small molecule agonists, cell-based qHTS assay (AID 1963590); details: CRE-bla HEK293T, beta-lactamase FRET ratio, 3 h; activation: at 92.4 µM (top of the series) unless noted
# Summary of the method: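 CRE-bla HEK 293T cells in DMEM with 10% dialyzed FBS, NEAA, pyruvate and 25 mM HEPES were plated 18 h at 37 C/5% CO2, then exposed to compounds in DMSO for 3 h before LiveBLAzer B/G FRET substrate addition.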
# [6] = molecular target: D(2) dopamine receptor (Homo sapiens) (UniProt P14416); assay: Dopamine D2 receptor (DRD2) small molecule agonists, cell-based qHTS assay (AID 1963594); details: HEK293-DRD2 cAMP HTRF, agonist mode, 30 min; activation: at 92.4 µM (top of the series) unless noted; also: nearly all actives have a fitted effect of over 35% in size
# Summary of the method: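 HEK293 cells stably expressing DRD2 were cultured 24 h at 37 C, then given Ro20-1724 (0.1 mM final) and compounds for 10 min at room temperature. NKH477 (200nM) was then added for 30 min. cAMP was read by HTRF.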
# [7] = activation: at 92.4 µM (top of the series) unless noted
structure (smiles),measurement,setting,value
C1COCCO1,Potency,[1],inactive
same,Potency,[2],inactive
same,activation,[3]; [7],inconclusive: -8.79%
CC1(C)CC(=O)CC(C)(C)N1,Potency,[1],"inconclusive: 45.4 µM [rising, partial curve, poor fit]"
same,Potency,[4],inactive
same,activation,[3]; [7],inconclusive: 14.6%
C=CCCCCCCCC,Potency,[1],inactive
same,Potency,[2],inactive
same,Potency,[3]; [7],inactive
CCCc1ccc(OCC(=O)N2CCN(C(=O)COc3ccc(CCC)cc3OC)CC2)c(OC)c1,activation,[1],inconclusive: 10.2% [at 30.3 µM]
same,Potency,[5],inactive
same,activation,[3]; [7],inconclusive: -19.1% [at 42.5 µM]
CCCCN,Potency,[1],"inconclusive: 15.3 µM [fluorescent, partial curve]"
same,activation,[3]; [7],inconclusive: 30.9% [at 42.5 µM]
Cc1ccccc1C,Potency,[1],inactive
same,Potency,[3]; [7],inactive
C[C@]12C=CC(=O)C=C1CC[C@@H]1[C@@H]2C(=O)C[C@@]2(C)[C@H]1CC[C@]2(O)C(=O)CO,activation,[1],inconclusive: 7.29% [at 30.3 µM]
same,activation,[3]; [7],inconclusive: -2.78%
same,activation,[3]; at 42.5 µM (top of the series),inactive: 1.98%
same,activation,[3]; at 92.4 µM (top of the series),inactive: 6.17%
O=C1Cc2cc(Cl)ccc2N1,Potency,[1],inactive
same,Potency,[3]; [7],inactive
CO[C@@H]1[C@@H](O[C@@H]2O[C@H](C)[C@@H](O[C@H]3C[C@@](C)(O)[C@@H](O)[C@H](C)O3)[C@H](N(C)C)[C@H]2O)[C@@H](CC=O)C[C@@H](C)[C@@H](O[C@@H]2CC[C@H](N(C)C)[C@@H](C)O2)/C=C/C=C/C[C@@H](C)OC(=O)C[C@H]1OC(C)=O,Potency,[1],inactive
same,activation,[3]; [7],inconclusive: 6.56% [at 42.5 µM]
C[Si](C)(C)O[Si](C)(C)C,Potency,[1],inactive
same,activation,[3]; [7],inconclusive: 12.8%
same,activation,[3]; at 92.4 µM (top of the series),inactive: -52.3%
same,Potency,[6],inactive

# Quoted at random: 2 records from the list.
structure (smiles),measurement,setting,value
CC1(C)CC(=O)CC(C)(C)N1,Potency,[1],"inconclusive: 45.4 µM [rising, partial curve, poor fit]"
same,Potency,[4],inactive
